Results on five molecules are retold here after US20240058467A1 (SUTRO BIOPHARMA, published 2024).

Sequences of proteins named here, by UniProt entry; tags and fusion partners are left off. A change or cut given only in a name is not applied to a line headed by its entry.
UniProt Q01973: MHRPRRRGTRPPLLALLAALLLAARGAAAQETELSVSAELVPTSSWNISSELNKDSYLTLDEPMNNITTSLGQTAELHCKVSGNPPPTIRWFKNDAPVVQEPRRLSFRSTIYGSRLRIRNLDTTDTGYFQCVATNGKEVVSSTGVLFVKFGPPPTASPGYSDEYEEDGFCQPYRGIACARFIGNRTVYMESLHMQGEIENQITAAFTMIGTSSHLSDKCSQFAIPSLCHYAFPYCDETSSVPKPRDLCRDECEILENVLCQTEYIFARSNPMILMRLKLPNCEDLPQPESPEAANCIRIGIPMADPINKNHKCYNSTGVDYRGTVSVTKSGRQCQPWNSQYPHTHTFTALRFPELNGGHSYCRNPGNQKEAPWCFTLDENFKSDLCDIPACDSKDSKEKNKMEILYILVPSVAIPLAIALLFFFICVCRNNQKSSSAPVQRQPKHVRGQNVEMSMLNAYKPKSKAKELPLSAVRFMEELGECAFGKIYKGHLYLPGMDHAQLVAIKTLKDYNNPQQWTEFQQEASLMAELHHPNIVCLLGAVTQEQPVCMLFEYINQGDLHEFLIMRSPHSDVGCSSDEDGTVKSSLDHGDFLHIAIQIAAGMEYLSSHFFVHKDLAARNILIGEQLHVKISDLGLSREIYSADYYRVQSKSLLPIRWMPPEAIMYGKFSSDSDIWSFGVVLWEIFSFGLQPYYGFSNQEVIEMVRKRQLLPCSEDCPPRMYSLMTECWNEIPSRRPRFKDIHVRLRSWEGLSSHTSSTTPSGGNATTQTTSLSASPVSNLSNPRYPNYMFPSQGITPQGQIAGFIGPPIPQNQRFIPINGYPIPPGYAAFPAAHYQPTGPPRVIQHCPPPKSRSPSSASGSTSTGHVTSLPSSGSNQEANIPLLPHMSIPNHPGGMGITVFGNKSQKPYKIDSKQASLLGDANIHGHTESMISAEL

The target of test [1] is ROR1 (recombinant protein coated on the ELISA plate in Example 11) (Homo sapiens (Human)) (UniProt Q01973). The test is described as follows: ELISA, ROR1 coated on the plate, detection by HRP-conjugated anti-human Fc. (In general: In an ELISA, binding on a coated surface is turned into a signal by an enzyme label.)
The target is the same in test [2]. Put plainly: ELISA: 2 ug/mL ROR1 coated on the plate, antibody titrated 3-fold from 5 ug/mL, HRP anti-human Fc, chemiluminescence (RLU).

Results are given in words; binding and its absence hold for the method and conditions named. Some binding calls cover weakened binding; strength is not graded here.

B1: 1987-C05 HC co-expressed with hUCHT1-LC3 (antibody, V domains shown)
VH: EVQLVESGGGLVQPGGSLRLSCAASGFNISDYDIHWVRQAPGKGLEWVGGIDPDDGSTDYADSVKGRFTISADTSKNTAYLQMNSLRAEDTAVYYCARDYGVFDYWGQGTLVTVSS
VL: DIQMTQSPSTLSASVGDRVTITCRASQDIRNYLNWYQQKPGKAPKLLIYYTSRLHSGVPSRFSGSGSGTEYTLTISSLQPDDFATYYCQQGNTLPWTFGGGTKVEIK
On to B1, for which the binding entry in test [1] and in test [2] was “binds” throughout.

B2: 1987-C05 HC co-expressed with hSP34-LC3 (antibody, V domains shown)
VH: EVQLVESGGGLVQPGGSLRLSCAASGFNISDYDIHWVRQAPGKGLEWVGGIDPDDGSTDYADSVKGRFTISADTSKNTAYLQMNSLRAEDTAVYYCARDYGVFDYWGQGTLVTVSS
VL: QTVVTQEPSLTVSPGGTVTLTCGSSTGAVTSGYYPNWFQQKPGQAPRGLIGGTKFLAPGTPARFSGSLLGGKAALTLSGVQPEDEAEYYCALWYSNRWVFGGGTQLTVTG
With B2, the binding entry in test [1] and in test [2] was “binds” throughout.

B3: 1944-A07 HC co-expressed with hUCHT1-LC3 (antibody, V domains shown)
VH: EVQLVESGGGLVQPGGSLRLSCAASGFNITGYYIHWVRQAPGKGLEWVGYISPNSGSTYYADSVKGRFTISADTSKNTAYLQMNSLRAEDTAVYYCARDSRRYVRPFDYWGQGTLVTVSS
VL: DIQMTQSPSTLSASVGDRVTITCRASQDIRNYLNWYQQKPGKAPKLLIYYTSRLHSGVPSRFSGSGSGTEYTLTISSLQPDDFATYYCQQGNTLPWTFGGGTKVEIK
Regarding B3, the binding result in test [1] and in test [2] was “binds” each time.

B4: 1944-A07 HC co-expressed with hOKT3-LC1 (antibody, V domains shown)
VH: EVQLVESGGGLVQPGGSLRLSCAASGFNITGYYIHWVRQAPGKGLEWVGYISPNSGSTYYADSVKGRFTISADTSKNTAYLQMNSLRAEDTAVYYCARDSRRYVRPFDYWGQGTLVTVSS
VL: DIQMTQSPSSLSASVGDRVTITCSASSSVSYMNWYQQKPGKAPKRLIYDTSKLASGVPSRFSGSGSGTEYTLTISSLQPEDFATYYCQQWSSNPFTFGQGTKLEIK
As for B4, the binding entry in test [1] and in test [2] was “binds” throughout.

B5: 1944-A07 HC co-expressed with hSP34-LC3 (antibody, V domains shown)
VH: EVQLVESGGGLVQPGGSLRLSCAASGFNITGYYIHWVRQAPGKGLEWVGYISPNSGSTYYADSVKGRFTISADTSKNTAYLQMNSLRAEDTAVYYCARDSRRYVRPFDYWGQGTLVTVSS
VL: QTVVTQEPSLTVSPGGTVTLTCGSSTGAVTSGYYPNWFQQKPGQAPRGLIGGTKFLAPGTPARFSGSLLGGKAALTLSGVQPEDEAEYYCALWYSNRWVFGGGTQLTVTG
With B5, the binding result in test [1] and in test [2] was “binds” throughout.
